Assay results taken from patent US20160046678A1 (ZYNGENIA, published 2016).
Results are given in words; binding and its absence hold for the method and conditions named. Some binding calls cover weakened binding; strength is not graded here.

Amino acid sequences for entries named in this document (tags omitted). Residues count along the entry.
UniProt P21860, residues 20-643: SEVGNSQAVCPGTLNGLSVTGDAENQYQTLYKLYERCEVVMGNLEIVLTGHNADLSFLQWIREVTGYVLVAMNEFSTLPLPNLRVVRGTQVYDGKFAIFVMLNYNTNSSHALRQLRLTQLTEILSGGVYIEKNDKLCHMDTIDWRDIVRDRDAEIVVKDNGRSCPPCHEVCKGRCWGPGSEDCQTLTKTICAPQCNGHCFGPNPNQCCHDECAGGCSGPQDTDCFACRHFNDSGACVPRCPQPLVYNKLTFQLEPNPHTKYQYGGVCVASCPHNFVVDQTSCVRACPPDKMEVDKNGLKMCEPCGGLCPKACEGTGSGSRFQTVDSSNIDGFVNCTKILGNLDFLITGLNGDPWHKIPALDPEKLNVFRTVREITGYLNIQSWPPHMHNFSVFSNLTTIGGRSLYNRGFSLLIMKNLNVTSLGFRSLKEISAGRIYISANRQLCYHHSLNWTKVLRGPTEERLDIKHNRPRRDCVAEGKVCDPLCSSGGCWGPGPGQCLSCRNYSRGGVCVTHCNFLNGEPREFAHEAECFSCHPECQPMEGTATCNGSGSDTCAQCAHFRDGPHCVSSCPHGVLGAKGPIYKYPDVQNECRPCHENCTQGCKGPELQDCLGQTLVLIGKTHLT

What follows are binders tested against ErbB3 (UniProt P21860) (assay: MRD screen, Example 48).
For VYQLCIKMWVCTWHG [EGC1], the binding was “binds”.
DLVGCLLFSHVSCFSPL [EGC2] was tested, and the binding was “binds”.
PTLSACMEAKCVLIFL [EGC3] was tested, and the binding was “binds”.
With LLWRCELMPPWPYMCSEVD [EGC5] the binding was “binds”.
GTQECAQDDYFRYWCLRTW [EGC13] was tested, and the binding was “binds”.
In the case of LDLCMTIERPHRQCPCG [EGC14], the binding is reported as “binds”.
LWRWCVWARDCPQSS [EGC19] was tested, and the binding was “binds”.
In the case of IAREFCMNYQCLRLLR [EGC20], the binding is reported as “binds”.
With SYWVCLTYFICWPSW [EGC21] the binding was “binds”.
VQQFVHWMESWNPACFWRM [EGC39] was tested, and the binding was “binds”.
In the case of LLNQCLQWAFHNCGCWN [EGC40], the binding is reported as “binds”.
LSWWCRMGWFQEYGECNFLF [EGC44] was tested, and the binding was “binds”.
For WTHACVVWNMKQMEACTSLT [EGC48], the binding was “binds”.
KVMFCWVMWKQCSSPP [EGC54] was tested, and the binding was “binds”.
For SLVSCPVHNPIWWSHCMEIM [EGC93], the binding was “binds”.
In the case of GHRLCIWMQNFVDGHCAGLV [EGC94], the binding is reported as “binds”.
With CHVSCPFYNPNWWSHCMELM [EGC99] the binding was “binds”.
For FLEMCMDWNPKTWCYCMEWM [EGC100], the binding was “binds”.
SFVMCPVYNPKQWSVCMEIL [EGC101] was tested, and the binding was “binds”.
In the case of LFLMCLVYPSEKWHVCVETL [EGC102], the binding is reported as “binds”.
With SLVKCPFFNPIWWSHCMELM [EGC104] the binding was “binds”.
For WSHACIVYNDKIMGACTCLT [EGC106], the binding was “binds”.
In the case of DQVRCPFQNPVWWSHCMYLL [EGC115], the binding is reported as “binds”.
With PLERCPFQNPLWFSHCMEML [EGC117] the binding was “binds”.
In the case of KFFMCQVYPSNRWAVCVETL [EGC120], the binding is reported as “binds”.
For TFYVCQIYPSGKWHVCVGTC [EGC121], the binding was “binds”.
For RFFMCQVYPSYKWHVCVESW [EGC122], the binding was “binds”.
For KFLMCRLYPSGKWHVCVETL [EGC123], the binding was “binds”.
In the case of LEVYCPFENPIWWARCMELM [EGC125], the binding is reported as “binds”.
With SRVRCPFQNPIWLAHCMKMT [EGC127] the binding was “binds”.
With SQVRCPFQNPIWRNHCMELI [EGC128] the binding was “binds”.
PKVRCPFQNPIWWSHCMEML [EGC129] was tested, and the binding was “binds”.
In the case of NFVMCQVYPSYTWHVCVGTL [EGC130], the binding is reported as “binds”.
In the case of KFMICRLYPSGNLHICVETS [EGC132], the binding is reported as “binds”.
With TFMMCQVYPSLKWHVCIETG [EGC133] the binding was “binds”.
For RFVMCQVYPSLNWHVCVQTL [EGC134], the binding was “binds”.
For SPVRCPFQNPIWYAHCMKIT [EGC135], the binding was “binds”.
SKVYCPFQNPIWFAKCIELM [EGC136] was tested, and the binding was “binds”.
With PQVRCPFQNPIWYSHCMKLM [EGC138] the binding was “binds”.
TQVRCPFQNPIWWSHCMEML [EGC139] was tested, and the binding was “binds”.
With KLMLCQVYPSLKWHVCVEAS [EGC140] the binding was “binds”.
With NFLMCQVYPSYKWHVCVEQL [EGC141] the binding was “binds”.
RFLVCQVYPSLKWHVCVEKS [EGC142] was tested, and the binding was “binds”.
In the case of TFFICQVYPSGKWHVCVDTV [EGC143], the binding is reported as “binds”.
For GFIMCQVYPSENWHVCLDRG [EGC144], the binding was “binds”.
In the case of KFIMCQVYPSERWHVCLETM [EGC145], the binding is reported as “binds”.
In the case of SDVYCPFSNPAWWVHCMEML [EGC150], the binding is reported as “binds”.
TQVYCPFANPVWWNHCMLLS [EGC151] was tested, and the binding was “binds”.
KFFMCQIYPSLKWHVCVEKL [EGC152] was tested, and the binding was “binds”.
KFVMCQVYPSEKWHVCIAPL [EGC153] was tested, and the binding was “binds”.
With QFFMCQVYPSLRWSVCQVTL [EGC154] the binding was “binds”.
In the case of GFVMCQVYPSQKWHVCLDTF [EGC155], the binding is reported as “binds”.
GFHMCQVYPSGKWLVCLHPR [EGC156] was tested, and the binding was “binds”.
For EFYMCQVYPSELWHVCVDKL [EGC157], the binding was “binds”.
For FKERCPFQNPIWYSRCMELI [EGC158], the binding was “binds”.
With SSVRCPFQNPIWWSHCMELL [EGC159] the binding was “binds”.
With SEIRCPFKNPIWYAHCMKLI [EGC160] the binding was “binds”.
For SQVRCPFQNPIWYTHCMELL [EGC161], the binding was “binds”.
With SQVYCPFHNPIWLAHCMELM [EGC163] the binding was “binds”.
KFILCQVYPSGKWHICTETL [EGC164] was tested, and the binding was “binds”.
With NLLLCKVYPSGKWHVCFAPL [EGC165] the binding was “binds”.
With KFQLCQVYPSERWHICVVTL [EGC166] the binding was “binds”.
For NFYMCKVYPSELWHVCVETL [EGC167], the binding was “binds”.
In the case of RFVMCQVYPSAKWHVCVETL [EGC168], the binding is reported as “binds”.
TNIRCPFQNPIWYSHCIALT [EGC169] was tested, and the binding was “binds”.
With SPVRCPFQNPIWYEHCMALI [EGC171] the binding was “binds”.
In the case of SAVRCPFHNPIWYSHCMKLL [EGC172], the binding is reported as “binds”.
With AQVRCPFQNPVWYSHCMDLI [EGC174] the binding was “binds”.
With YFRMCQVYPSLKWHICVETM [EGC175] the binding was “binds”.
